The whole screen tested about 390,000 compounds, of which about 820 (0.21%) were called active. The inconclusive results got no clear call from the source; some entries with a clear call stand among them for comparison. The call rests on the fitted dose curve; in most records, active means well fitted inhibition curve with a large enough effect; inconclusive means small, poorly fitted or top-dose-only effect, or another doubt; inactive means no such curve, though single readings can be large or run the other way. Potencies beside an inconclusive call are fits to weak or partial responses and may not hold up.
Each molecule was assayed against Histone acetyltransferase KAT2A (Homo sapiens) (UniProt Q92830) (assay: qHTS Assay for Inhibitors of GCN5L2). Conditions: GCN5L2 HAT assay, ThioGlo1 CoA-SH fluorescence; series mostly up to 58.9 µM.
Summary of the method: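 GCN5L2 (20 nM) in 50mM HEPES pH 7.5, 0.1mM EDTA, 0.01% Tween-20 preincubated 15 min with compounds at room temperature. Reaction started with H3(1-25) 75uM, acetyl-CoA 70uM, ThioGlo1 50uM; CoA-thiol fluorescence (Ex340/Em540) read at 0 and 20 min.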
Potency means the concentration at half of the fitted maximal effect.

Protein sequences, listed by entry. Tags and fused reporters are not part of them.
UniProt Q92830, whole entry, looked up: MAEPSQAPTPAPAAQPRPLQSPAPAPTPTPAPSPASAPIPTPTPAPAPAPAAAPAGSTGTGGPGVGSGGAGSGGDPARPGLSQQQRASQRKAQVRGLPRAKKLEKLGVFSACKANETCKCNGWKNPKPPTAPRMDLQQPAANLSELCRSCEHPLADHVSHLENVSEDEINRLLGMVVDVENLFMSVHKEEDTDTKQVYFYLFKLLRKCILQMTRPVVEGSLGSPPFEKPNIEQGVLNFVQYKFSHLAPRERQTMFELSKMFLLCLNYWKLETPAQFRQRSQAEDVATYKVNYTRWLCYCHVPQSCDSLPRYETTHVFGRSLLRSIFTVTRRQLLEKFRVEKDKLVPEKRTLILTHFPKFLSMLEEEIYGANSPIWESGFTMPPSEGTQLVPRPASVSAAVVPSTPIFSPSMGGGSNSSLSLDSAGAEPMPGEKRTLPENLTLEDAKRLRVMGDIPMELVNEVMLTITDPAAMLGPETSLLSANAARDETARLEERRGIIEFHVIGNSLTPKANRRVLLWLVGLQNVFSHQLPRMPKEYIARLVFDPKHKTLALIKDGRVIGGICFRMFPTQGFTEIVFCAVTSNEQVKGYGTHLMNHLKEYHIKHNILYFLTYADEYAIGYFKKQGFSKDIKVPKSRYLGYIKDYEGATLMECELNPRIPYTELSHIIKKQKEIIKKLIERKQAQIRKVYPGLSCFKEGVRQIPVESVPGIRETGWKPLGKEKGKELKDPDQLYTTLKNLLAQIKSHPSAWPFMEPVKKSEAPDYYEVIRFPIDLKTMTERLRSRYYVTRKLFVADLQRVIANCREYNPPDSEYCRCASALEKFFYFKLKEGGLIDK

Compound | Potency
COc1cccc(CNC(=O)c2ccc3oc(=O)n(Cc4ccccc4)c3c2)c1 | inactive
Nc1c(C(=O)NCc2ccco2)sc2nc(N3CCOCC3)c3c(c12)CCCC3 | inconclusive: 35.5 µM [inhibitor, partial curve]
CC(C(=O)Nc1ccc(C(F)(F)F)cc1)N(C)CC(=O)N1CCN(Cc2ccccc2)CC1 (stereo not given) | inactive
O=[N+]([O-])c1cccc(CN2C[C@@]34C=C[C@@H](C[C@@H]3S2(=O)=O)O4)c1 | inconclusive: 31.6 µM [inhibitor, single point]
CC(=O)OCCCn1c(C)[n+](C)c2cc(Cl)c(Cl)cc21 | inactive
CC(C)(C)OC(=O)N1C[C@H](O)C[C@H]1C(=O)OCC(=O)c1ccc([N+](=O)[O-])cc1 | inactive
Cc1ccc(N2CCN(c3ncnc4onc(-c5ccc(F)cc5)c34)CC2)c(C)c1 | inactive
COc1cc(NC(=O)c2c(C)nn(-c3ccc(F)cc3)c2-n2cccc2)cc(OC)c1 | inactive
CCCCN(C)C(=O)C1CCN(c2ccc(S(=O)(=O)N3CCOCC3)cc2[N+](=O)[O-])CC1 | inconclusive: 22.4 µM [inhibitor, partial curve]
Cc1ccc(CNC(=O)CCC(=O)n2ncc3cc(C)ccc32)cc1 | inconclusive: 28.2 µM [inhibitor, single point]
CCCCCN1C(C(=O)c2ccccc2)=C(NC(=O)c2ccc(OC)c(OC)c2)c2ccccc2S1(=O)=O | inactive
O=c1[nH]c2ccc(S(=O)(=O)N3CCN(Cc4ccccc4)CC3)cc2[nH]c1=O | inconclusive: 5.01 µM [inhibitor, single point]
CCC(=O)Nc1ccc(C2C(=O)c3ccccc3C2=O)cc1 | inactive
O=C(Cc1ccc2c(c1)CCCC2)Nc1ccccc1Cl | inconclusive: 0.794 µM [inhibitor, single point]
Cc1ccc(S(=O)(=O)N(C)C)cc1NC(=O)c1cc(-c2ccco2)nc2ccccc12 | inactive
Cc1cc(C)c(C)c(S(=O)(=O)NC2CCN(Cc3ccccc3)CC2)c1C | inactive
O=C(N/N=C/c1ccc2cccc(OCc3ccccc3)c2n1)c1ccc(Cl)cc1 | inconclusive: 39.8 µM [inhibitor, single point]
Cc1ccc(CSC2=Nc3ccccc3C3=NC(CCC(=O)NCCc4ccccc4)C(=O)N23)cc1 (stereo not given) | inactive
CCCNC(=O)CN1C(=O)NC(CCSC)C1=O (stereo not given) | inconclusive: 31.6 µM [inhibitor, partial curve]
O=C(NC1CCCCCCC1)C1c2ccccc2C(=O)N1Cc1ccco1 (stereo not given) | inconclusive: 28.2 µM [inhibitor, single point]
Nc1nc2nc(-c3ccc(Cl)cc3)cc(C(F)(F)F)n2n1 | inconclusive: 8.91 µM [inhibitor, single point]
CCc1cc(=O)oc2c3c(cc(OCC(=O)NCCCn4ccnc4)c12)OC(C)(C)CC3 | inconclusive: 35.5 µM [inhibitor, partial curve]
CC1CC(C)CN(C(=O)c2ccc(-c3ccc([N+](=O)[O-])cc3)o2)C1 (stereo not given) | inactive
O=C(Nc1ccc(Oc2ccc(Cl)cc2)cc1)c1ncn[nH]1 | inactive

Compound | Potency
CN1CCN(c2ncc3nc(-c4cc(F)cc(F)c4)c(=O)n(-c4ccccc4)c3n2)CC1 | inconclusive: 39.8 µM [inhibitor, single point]
Cn1nc(C(C)(C)C)cc1NC(=O)Nc1ccc(Cl)cc1 | inconclusive: 11.2 µM [inhibitor, partial curve]
Cc1ccc(S(=O)(=O)NNc2ccccc2)c(C)c1 | inconclusive: 31.6 µM [inhibitor, single point]
COc1ccccc1Cc1nc2ccccc2nc1SCC(=O)N1CCC(C)CC1 | inactive
Cc1nc2c(ccc3nc(NC(=O)c4ccc(S(=O)(=O)N(C)C)cc4)sc32)s1 | inconclusive: 3.55 µM [inhibitor, single point]
CC(C)CCN(Cc1ccco1)C(=O)Cn1ncc2c([nH]c3ccccc32)c1=O | inactive
CCCC[n+]1c2ccccc2cc2ccccc21 | inconclusive: 39.8 µM [inhibitor, single point]
CCOC(=O)N1CCN(c2c(-c3ccc(C(C)C)cc3)c(=O)c2=O)CC1 | inconclusive: 5.62 µM [inhibitor, single point]
CCc1ccc(C(=O)NNC(=O)CN2C(=O)NC(CC)(c3ccccc3)C2=O)cc1 (stereo not given) | inconclusive: 39.8 µM [inhibitor, single point]
CNC(=S)NNC(=O)c1cccn(Cc2cccc(Cl)c2)c1=O | inconclusive: 0.708 µM [inhibitor, single point]
COc1ccccc1C(=O)Nc1cccc2cccnc12 | inactive
COc1ccc(S(=O)(=O)Nc2c3ccccc3nc(=O)n2-c2ccccc2)cc1 | inactive
Cc1ccc(C(=O)/C=C/c2ccc(-c3ccccc3[N+](=O)[O-])o2)cc1 | inconclusive: 35.5 µM [inhibitor, single point]
CC(C)(C)C(=O)NCCCc1nc2ccccc2n1CCCOc1ccc(Cl)cc1 | inconclusive: 39.8 µM [inhibitor, single point]
COc1ccc(/C(C)=N/NC(=S)NCCc2ccccc2)cc1 | inactive
O=C(NCC1CCCO1)NC1(C(F)(F)F)Oc2ccccc2O1 (stereo not given) | inconclusive: 1 µM [inhibitor, full curve, poor fit]
COc1ccc(C2C=C(c3ccc(Br)cc3)Nc3nc(NS(C)(=O)=O)nn32)cc1 (stereo not given) | inconclusive: 31.6 µM [inhibitor, single point]
COc1ccc(NC(=O)c2ccc(COc3ccccc3)o2)cc1 | inconclusive: 8.91 µM [inhibitor, full curve, poor fit]
Cc1ccc(/C=C2/NC(=O)N(c3ccccc3)C2=O)o1 | inconclusive: 39.8 µM [inhibitor, single point]
CC(=O)Nc1ccc(CNc2ncnc3ccc(-c4c(C)noc4C)cc23)cc1 | inconclusive: 39.8 µM [inhibitor, single point]
Cc1c(OCC(=O)N2CCC(C(=O)O)CC2)ccc2c1oc(=O)c1ccccc12 | inconclusive: 20 µM [inhibitor, partial curve, poor fit]
Cc1cc(/C=N/Nc2ccc([N+](=O)[O-])cn2)c(C)n1-c1ccc(C(=O)O)cc1 | inconclusive: 31.6 µM [inhibitor, single point]
Cc1ccc(NC(=O)COc2ccccc2C(N)=O)cc1S(=O)(=O)N1CCCCCC1 | inactive
COc1cccc2c1OC(=O)CC2c1ccc(C)cc1 (stereo not given) | inconclusive: 63.1 µM [inhibitor, single point]

2 compounds drawn at random from the list so far:
Compound | Potency
Cc1ccc(/C=C2/NC(=O)N(c3ccccc3)C2=O)o1 | inconclusive: 39.8 µM [inhibitor, single point]
COc1ccc(S(=O)(=O)Nc2c3ccccc3nc(=O)n2-c2ccccc2)cc1 | inactive

Carrying on:

Compound | Potency
COc1cc(S(=O)(=O)Nc2cccc(C)c2)ccc1N=Cc1c(C)[nH]n(-c2ccccc2)c1=O | inconclusive: 35.5 µM [inhibitor, single point]
Cc1ccc(C)c(-c2nc3ccc(N)cc3[nH]2)c1 | inconclusive: 10 µM [inhibitor, partial curve]
COc1ccccc1C(=O)COC(=O)c1cnc(C)cn1 | inactive
CCCc1cc(=O)oc2cc(C)c(CN3CCCC3)c(O)c12 | inconclusive: 20 µM [inhibitor, partial curve]
CN(CC(=O)Nc1c(Cl)cccc1Cl)C(=O)CCNS(=O)(=O)c1ccccc1C(F)(F)F | inactive
O=C(N/N=C/c1ccc(C(=O)O)cc1)C1=NNC(c2ccccc2)(c2ccccc2)C1 | inactive
Cc1ccccc1NC(=O)c1ccc(Cl)c(S(=O)(=O)N2CCCCCC2)c1 | inconclusive: 39.8 µM [inhibitor, partial curve, poor fit]
O=C(NCCCO)Nc1ccc2nc(-c3ccco3)c(-c3ccco3)nc2c1 | active: 15.8 µM
CCOc1ccccc1OC(=O)CN1C(=O)c2ccccc2C1=O | inconclusive: 0.141 µM [inhibitor, full curve, poor fit]
Cc1cc(O)c(NC(=O)c2cc([N+](=O)[O-])ccc2Cl)cc1C | inconclusive: 7.08 µM [inhibitor, single point]
CN1C(=O)OC(C)(C)C1=O | inconclusive: 17.8 µM [inhibitor, single point]
CCN(Cc1ccccc1)C(=O)c1sc2nc3n(c(=O)c2c1C)CCCC3 | inconclusive: 22.4 µM [inhibitor, single point]
O=S(=O)(c1ccccc1)n1ccc(-c2cnc(-c3ccccc3)s2)n1 | inconclusive: 0.126 µM [inhibitor, full curve, poor fit]
COc1ccc(Cn2nnnc2C(c2cccs2)N2CCN(c3ccc([N+](=O)[O-])cc3)CC2)cc1 (stereo not given) | inconclusive: 28.2 µM [inhibitor, single point]
CCc1ccc(C2=CSC3=NCCN23)cc1 | inactive
O=C(CC12CC3CC(CC(C3)C1)C2)NC(=S)N1CCCCC1 | inconclusive: 39.8 µM [inhibitor, single point]
Cc1ccc(C)c(N2CCN(C(=O)c3cc(S(=O)(=O)N4CCCCCC4)cn3C)CC2)c1 | inactive
CCN(CC)S(=O)(=O)c1ccc2oc(C(=O)NCc3ccccc3OC)c(C)c2c1 | inactive
CC(=O)Nc1ccc(C(=O)OCC(=O)N2CCN(C(=O)c3ccco3)CC2)cc1 | inactive
CC(=O)CCCCn1c(=O)c2c(ncn2C)n(C)c1=O | inconclusive: 3.16 µM [inhibitor, partial curve, poor fit]
CSc1ncc(Cl)c(C(=O)Nc2cccnc2)n1 | inconclusive: 7.08 µM [inhibitor, single point]
CC(NC(=S)NC(=O)c1ccccc1Br)c1ccccc1 (stereo not given) | inconclusive: 39.8 µM [inhibitor, single point]

2 entries from above, in markdown:

| Compound | Potency |
| --- | --- |
| CCN(CC)S(=O)(=O)c1ccc2oc(C(=O)NCc3ccccc3OC)c(C)c2c1 | inactive |
| CC(=O)Nc1ccc(C(=O)OCC(=O)N2CCN(C(=O)c3ccco3)CC2)cc1 | inactive |

Source: PubChem BioAssay AID504327 (National Center for Advancing Translational Sciences (NCATS), 2011)
